{"source": "patent US4743677A", "about": "(Toyo Jozo Co., Ltd., priority 1985, dated 1988)", "test": "general procedure: hybrid (solid and solution phase) peptide synthesis; MBHA resin (Applied Biosystems; amino groups 0.61 mmole/g); DCC; DCC/HOBt double coupling for Asn and Arg; azide fragment coupling", "details": "purification step, on 0.0165 mmole protected polypeptide", "note": "Strings that start with PEPTIDE1 are HELM notation: dots part the residues, brackets hold end groups and non-standard residues.", "data": [{"substance": "PEPTIDE1{[Mpa].D.T.A.T.C.V.T.H.R.L.A.G.L.L.S.R.S.G.G.V.V.K.N.N.F.V.P.T.N.V.G.S.K.A.F.[am]}$PEPTIDE1,PEPTIDE1,1:R3-6:R3$$$V2.0", "values": [{"measurement": "step yield", "result": 40.0, "unit": "%"}]}]}
